Experimental data taken from article PMC8366450.
No constants are given. Whether binding was seen depends on the method and setting. Some results given as binding are weak or reduced against the parent protein; the word gives no strength.

Chains of the proteins cited; added tags and fusions are not shown.
UniProt Q14103: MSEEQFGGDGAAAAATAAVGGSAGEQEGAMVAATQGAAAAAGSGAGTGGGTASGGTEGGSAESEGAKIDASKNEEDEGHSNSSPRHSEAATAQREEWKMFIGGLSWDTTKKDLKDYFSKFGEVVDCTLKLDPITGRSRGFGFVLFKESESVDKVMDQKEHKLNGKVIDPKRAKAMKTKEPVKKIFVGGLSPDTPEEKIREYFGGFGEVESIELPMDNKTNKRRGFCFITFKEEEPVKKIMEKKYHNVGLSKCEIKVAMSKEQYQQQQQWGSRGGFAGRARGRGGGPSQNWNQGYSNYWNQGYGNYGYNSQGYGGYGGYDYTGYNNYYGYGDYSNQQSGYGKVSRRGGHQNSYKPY
UniProt P02686: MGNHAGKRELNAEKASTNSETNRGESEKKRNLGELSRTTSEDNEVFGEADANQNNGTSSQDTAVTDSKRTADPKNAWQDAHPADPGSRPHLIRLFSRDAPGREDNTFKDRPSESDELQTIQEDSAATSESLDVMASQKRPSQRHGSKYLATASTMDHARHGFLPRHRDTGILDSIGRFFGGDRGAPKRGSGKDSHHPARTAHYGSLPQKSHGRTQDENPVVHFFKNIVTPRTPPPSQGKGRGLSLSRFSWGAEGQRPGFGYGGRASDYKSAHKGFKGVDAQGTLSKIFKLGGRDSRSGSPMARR
UniProt P18206: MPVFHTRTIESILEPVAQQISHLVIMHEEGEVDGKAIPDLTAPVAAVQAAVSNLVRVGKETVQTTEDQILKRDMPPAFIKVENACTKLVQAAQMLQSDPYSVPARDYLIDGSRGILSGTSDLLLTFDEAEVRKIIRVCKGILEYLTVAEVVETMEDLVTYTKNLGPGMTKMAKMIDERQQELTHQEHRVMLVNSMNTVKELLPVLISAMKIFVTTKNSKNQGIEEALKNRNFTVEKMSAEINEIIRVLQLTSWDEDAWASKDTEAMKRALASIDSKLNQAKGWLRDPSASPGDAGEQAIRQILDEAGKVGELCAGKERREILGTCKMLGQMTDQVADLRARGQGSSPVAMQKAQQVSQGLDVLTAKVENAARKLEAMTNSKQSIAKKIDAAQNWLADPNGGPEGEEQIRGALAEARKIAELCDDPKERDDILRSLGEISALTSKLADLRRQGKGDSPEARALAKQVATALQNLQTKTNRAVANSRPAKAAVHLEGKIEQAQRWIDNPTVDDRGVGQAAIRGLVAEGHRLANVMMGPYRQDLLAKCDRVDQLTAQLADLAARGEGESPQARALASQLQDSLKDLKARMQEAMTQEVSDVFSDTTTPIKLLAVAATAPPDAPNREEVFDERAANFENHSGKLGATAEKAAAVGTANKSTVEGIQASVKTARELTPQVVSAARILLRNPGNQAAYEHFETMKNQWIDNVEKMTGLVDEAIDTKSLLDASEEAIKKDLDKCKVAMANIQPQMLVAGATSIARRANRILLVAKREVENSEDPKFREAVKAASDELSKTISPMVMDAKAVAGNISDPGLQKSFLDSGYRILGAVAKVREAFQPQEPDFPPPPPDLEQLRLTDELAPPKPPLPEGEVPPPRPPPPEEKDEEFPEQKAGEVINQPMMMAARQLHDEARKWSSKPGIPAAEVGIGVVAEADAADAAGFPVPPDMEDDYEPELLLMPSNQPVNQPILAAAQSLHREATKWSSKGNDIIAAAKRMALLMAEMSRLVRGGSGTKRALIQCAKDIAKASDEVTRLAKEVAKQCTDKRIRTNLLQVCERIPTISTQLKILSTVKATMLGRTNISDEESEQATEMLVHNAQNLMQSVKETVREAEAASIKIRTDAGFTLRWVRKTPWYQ
UniProt O43670: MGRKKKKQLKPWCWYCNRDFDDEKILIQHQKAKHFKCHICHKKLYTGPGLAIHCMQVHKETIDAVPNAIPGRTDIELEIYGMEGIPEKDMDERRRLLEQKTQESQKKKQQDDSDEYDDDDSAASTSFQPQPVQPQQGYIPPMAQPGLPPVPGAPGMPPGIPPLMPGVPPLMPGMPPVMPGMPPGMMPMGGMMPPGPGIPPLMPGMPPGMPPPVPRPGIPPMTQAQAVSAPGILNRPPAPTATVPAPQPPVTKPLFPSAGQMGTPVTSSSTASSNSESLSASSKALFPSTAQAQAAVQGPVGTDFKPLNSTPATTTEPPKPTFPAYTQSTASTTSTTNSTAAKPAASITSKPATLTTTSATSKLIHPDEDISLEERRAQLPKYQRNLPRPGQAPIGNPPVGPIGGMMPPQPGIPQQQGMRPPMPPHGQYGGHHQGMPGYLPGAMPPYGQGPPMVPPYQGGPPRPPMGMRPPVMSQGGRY

Key:
Experiment in all cases: peptide or protein array; HuProt v3.1 human proteome microarray; >20 000 human recombinant proteins immobilised on the array; purified His-V5-CPPED1 applied; both purified
[1] = target: T1, C1q and TNF related 5 (human) (UniProt Q9BXJ0)
T1 sequence: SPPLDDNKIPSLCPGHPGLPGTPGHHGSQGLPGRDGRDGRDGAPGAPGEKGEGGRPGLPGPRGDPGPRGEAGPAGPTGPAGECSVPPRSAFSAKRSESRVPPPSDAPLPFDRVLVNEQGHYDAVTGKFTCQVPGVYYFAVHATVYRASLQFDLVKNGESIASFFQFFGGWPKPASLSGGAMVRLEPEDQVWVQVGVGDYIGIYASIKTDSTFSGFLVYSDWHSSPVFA

[2] = target: Heterogeneous nuclear ribonucleoprotein D (human) (UniProt Q14103)
[3] = target: Myelin basic protein (human) (UniProt P02686)
[4] = target: T2, N-acetyltransferase 6 (human) (UniProt Q93015)
T2 sequence: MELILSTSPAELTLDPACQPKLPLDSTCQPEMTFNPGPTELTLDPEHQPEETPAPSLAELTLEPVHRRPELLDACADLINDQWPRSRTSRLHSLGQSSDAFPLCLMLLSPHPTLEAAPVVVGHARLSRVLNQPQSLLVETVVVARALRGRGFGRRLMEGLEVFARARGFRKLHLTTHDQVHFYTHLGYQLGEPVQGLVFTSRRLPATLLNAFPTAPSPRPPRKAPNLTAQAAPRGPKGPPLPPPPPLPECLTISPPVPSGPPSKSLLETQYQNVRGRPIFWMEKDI

[5] = target: T3, QKI, KH domain-containing RNA binding (human) (UniProt Q96PU8)
T3 sequence: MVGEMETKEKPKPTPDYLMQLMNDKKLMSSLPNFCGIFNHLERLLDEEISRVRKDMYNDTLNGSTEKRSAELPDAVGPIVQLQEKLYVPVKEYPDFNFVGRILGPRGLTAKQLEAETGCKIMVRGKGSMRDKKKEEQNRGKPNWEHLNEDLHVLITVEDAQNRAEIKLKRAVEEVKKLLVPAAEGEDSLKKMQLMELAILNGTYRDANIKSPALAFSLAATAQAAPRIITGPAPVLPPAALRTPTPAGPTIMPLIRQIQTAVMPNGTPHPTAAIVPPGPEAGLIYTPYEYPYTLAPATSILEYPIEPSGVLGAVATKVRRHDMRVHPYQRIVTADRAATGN

[6] = target: Vinculin (human) (UniProt P18206)
[7] = target: Zinc finger protein 207 (human) (UniProt O43670)
[8] = target: T4, pogo transposable element derived with ZNF domain (human) (UniProt Q7Z3K3)
T4 sequence: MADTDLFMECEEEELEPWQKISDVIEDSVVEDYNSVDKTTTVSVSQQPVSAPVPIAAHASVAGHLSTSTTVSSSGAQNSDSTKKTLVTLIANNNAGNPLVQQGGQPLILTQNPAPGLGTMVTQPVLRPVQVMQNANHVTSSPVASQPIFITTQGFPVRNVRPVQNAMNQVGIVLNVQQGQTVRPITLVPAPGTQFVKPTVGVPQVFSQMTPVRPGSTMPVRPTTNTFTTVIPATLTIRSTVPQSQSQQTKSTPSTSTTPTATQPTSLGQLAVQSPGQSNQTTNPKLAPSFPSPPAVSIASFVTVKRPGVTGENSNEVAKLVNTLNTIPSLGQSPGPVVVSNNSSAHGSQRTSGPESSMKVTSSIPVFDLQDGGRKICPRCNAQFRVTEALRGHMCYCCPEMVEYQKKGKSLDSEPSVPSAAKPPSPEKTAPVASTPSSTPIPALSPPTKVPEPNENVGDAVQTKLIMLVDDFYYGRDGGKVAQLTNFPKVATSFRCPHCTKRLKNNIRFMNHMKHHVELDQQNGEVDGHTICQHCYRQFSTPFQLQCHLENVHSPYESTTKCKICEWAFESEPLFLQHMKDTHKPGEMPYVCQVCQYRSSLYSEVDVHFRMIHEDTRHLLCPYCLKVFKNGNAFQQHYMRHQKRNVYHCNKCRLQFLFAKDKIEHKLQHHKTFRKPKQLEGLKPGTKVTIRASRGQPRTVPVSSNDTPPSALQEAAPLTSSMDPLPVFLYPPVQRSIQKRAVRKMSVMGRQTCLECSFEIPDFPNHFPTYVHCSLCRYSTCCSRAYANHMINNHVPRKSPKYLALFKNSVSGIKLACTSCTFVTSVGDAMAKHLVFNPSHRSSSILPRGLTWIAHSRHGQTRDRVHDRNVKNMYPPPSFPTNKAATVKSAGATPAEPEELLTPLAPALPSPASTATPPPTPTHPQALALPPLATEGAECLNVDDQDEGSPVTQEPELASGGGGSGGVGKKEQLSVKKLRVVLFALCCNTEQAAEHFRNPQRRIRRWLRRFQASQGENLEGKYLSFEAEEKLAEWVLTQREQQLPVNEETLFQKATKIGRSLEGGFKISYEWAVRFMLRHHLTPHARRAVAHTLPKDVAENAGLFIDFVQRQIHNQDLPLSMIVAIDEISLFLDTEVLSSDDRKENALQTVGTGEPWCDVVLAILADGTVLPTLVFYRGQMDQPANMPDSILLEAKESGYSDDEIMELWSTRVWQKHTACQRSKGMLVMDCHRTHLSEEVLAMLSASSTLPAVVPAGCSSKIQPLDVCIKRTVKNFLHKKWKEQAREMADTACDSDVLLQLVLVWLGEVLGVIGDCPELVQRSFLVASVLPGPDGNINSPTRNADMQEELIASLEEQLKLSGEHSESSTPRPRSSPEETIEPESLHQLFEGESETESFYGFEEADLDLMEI

Measured: binding

human recombinant CPPED1 with N-terminal His-V5 dual tag (from UniProt Q9BRF8 1-314) (enzyme)
binds: all assays above
